The campaign covered roughly 330,000 compounds. About 7,700 (2.3%) were called active. The inconclusive results got no clear call from the source; some entries with a clear call stand among them for comparison. Calls follow the shape of the dose curve; as a rule, active = well fitted inhibition curve with a large enough effect; inconclusive = small, poorly fitted or top-dose-only effect, or effect the other way; inactive = flat fitted curve, though single readings scatter. Where the call is inconclusive, the potency comes from a doubtful curve fit.
Experiment: qHTS screen for small molecules that inhibit ELG1-dependent DNA repair in human embryonic kidney (HEK293T) cells expressing luciferase-tagged ELG1; also: nearly all actives have a fitted effect of over 55% in size
Conditions: HEK293T ELG1-luciferase reporter, luminescence, 16 h, DNA damage induced by 5-fluorouridine; activity change, negative = inhibition: at 46.1 µM (top of the series)
How it was run: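 Quantitative HTS, concentration-response format. 2,000 cells/well co-treated with 5-fluorouridine and compound, 16 hr in 5% CO2 at 37 °C; ONE-Glo luminescence read after 30 min.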
% is scaled to controls: 0 for no effect and ±100 for the full control effect; potency is read from the fitted curve at half-maximal effect.

Compound | Potency | activity change, negative = inhibition
N/C(=N\NC(=O)c1cccs1)c1cc2ccccc2oc1=O | inconclusive: 13 µM [activator, partial curve, poor fit] | 
COc1ccccc1CNC(=O)C1COc2ccccc2O1 (stereo not given) | inconclusive: 16.4 µM [activator, partial curve] | 
CC(O)[C@H]1CNC(=S)N1CCc1cccc(F)c1 (stereo not given in full) | inactive | 
COc1ccc2sc3ccccc3c(=O)c2c1OC | inconclusive: 14.1 µM [activator, single point] | 
CCOC(=O)C1Oc2ccccc2C(c2cccc3ccccc23)=C1C(=O)OC (stereo not given) | inconclusive: 20.6 µM [inhibitor, single point] | 
CC1CCCC(NC(=O)CCCn2c(=O)[nH]c3cc(Cl)ccc3c2=O)C1C (stereo not given) | inconclusive: 29.1 µM [inhibitor, single point] | 
Cc1ccc(Cn2ccc(=O)c(OCc3ccccc3)c2C)cc1 | inconclusive: 9.2 µM [activator, partial curve] | 
Cc1cccc(NC(=O)c2cc3c(s2)-c2c(C)cccc2OC3)n1 | inconclusive: 20.6 µM [activator, single point] | 
FC(F)(F)c1cccc(N2CCN(CC3CC4C=CC3C4)CC2)c1 (stereo not given) |  | inconclusive: 0.663% [activator]
O=C(CCC1N=C2c3ccccc3N=C(SCc3ccccc3Cl)N2C1=O)NCc1ccco1 (stereo not given) | inactive | 
CCOC(=O)C1CCN(C(=O)Nc2ccc(Cl)cc2Cl)CC1 | inconclusive: 16.4 µM [activator, single point] | 
Cc1nc(C)c(C(=O)C2=C(O)C(=O)N(CCN(C)C)C2c2ccco2)s1 (stereo not given) | inactive | 
COC(=O)C1(Cc2cc(-c3ccc([N+](=O)[O-])cc3)no2)CCN(C(=O)OC(C)(C)C)CC1 | inconclusive: 10 µM [inhibitor, single point] | 
CC(=O)c1sc2ccccc2c1OC(=O)c1ccco1 | inactive | 
COc1ccccc1CN(C)C(=O)C(c1ccccc1)c1ccccc1 | inconclusive: 11.6 µM [inhibitor, partial curve] | 
COc1ccc(OC)c(C(=O)COC(=O)c2c(OC)cccc2OC)c1 | inconclusive: 20.6 µM [inhibitor, partial curve, poor fit] | 
O=C(NCC(=O)N1CCN(S(=O)(=O)c2ccccc2)CC1)c1ccc(Br)o1 | inconclusive: 1.03 µM [activator, single point] | 
Nc1nncn1C(=O)c1cccs1 | inactive | 
Cc1ccccc1OCCC(=O)N(CC(=O)Nc1ccccc1C(F)(F)F)Cc1ccco1 | inconclusive: 18.3 µM [inhibitor, single point] | 
O=S(=O)(Nc1cccc(-c2cn3ccsc3n2)c1)c1ccc(F)cc1 | inactive | 
Clc1cccc(N2CCN(CCNc3nc4ccccc4n4cnnc34)CC2)c1 | active: 20.6 µM | 
O=c1c2c(-c3ccccc3)csc2nc2n1CCC2 | inactive | 
Cc1c(C(=O)Nc2cccc(C(F)(F)F)c2)oc2ccc(S(=O)(=O)N3CCOCC3)cc12 | inconclusive: 20.6 µM [inhibitor, partial curve, poor fit] | 
NS(=O)(=O)c1cccc(NS(=O)(=O)c2ccc3ccccc3c2)c1 | inactive | 

Compound | Potency | activity change, negative = inhibition
COC(=O)c1sc(-c2ccc(C(C)(C)C)cc2)cc1NC(=O)c1ccccc1C(=O)O | inconclusive: 5.17 µM [activator, single point] | 
COc1ccc(C2C=C(c3ccc(Br)s3)Nc3ncnn32)cc1OC (stereo not given) | inconclusive: 7.31 µM [inhibitor, partial curve] | 
O=C(CCl)N(c1ccccc1)C1CCS(=O)(=O)C1 (stereo not given) | inconclusive: 29.1 µM [inhibitor, single point] | 
O=C(Nc1ccc(Sc2ccc(Br)cc2)cc1)c1ccco1 | inconclusive: 18.4 µM [activator, single point] | 
O=c1c2ccccc2nc2c3ccccc3c(NCc3cccnc3)nn12 | inconclusive: 29.1 µM [inhibitor, partial curve, poor fit] | 
COc1ccccc1N1C(=O)c2cccc3cccc(c23)C1=O | inactive | 
O=C1NN(c2ccccc2)C(=O)/C1=C\c1ccc2c(c1)OCO2 | inactive | 
CCOc1ccc(S(=O)(=O)N(C)c2ccc(OCC(=O)NCc3ccco3)cc2)cc1 | inconclusive: 16.4 µM [inhibitor, single point] | 
COc1cc(C(O)CO)ccc1OS(=O)(=O)O (stereo not given) | inactive | 
Cc1cccc(CSC2=NN3CCCC(=O)N=C3S2)c1 | inconclusive: 18.4 µM [activator, partial curve] | 
Cc1ccc(CNC(=O)CSc2ncn[nH]2)cc1 | inconclusive: 29.1 µM [activator, single point] | 
Cc1cc(C(=O)NCCC2=CCCCC2)c(C)o1 | inconclusive: 4.11 µM [activator, partial curve] | 
CS(=O)(=O)c1ccc(NC(=O)c2cccc(S(=O)(=O)N3CCN(Cc4ccccc4)CC3)c2)cc1 | inconclusive: 32.6 µM [inhibitor, single point] | 
Fc1ccc(OCc2nnc(-c3ccccc3Br)o2)c(Cl)c1 | inconclusive: 16.4 µM [activator, partial curve] | 
CC(C)Oc1cccc(C(=O)C2CCCN(Cc3cnc(N4CCOCC4)s3)C2)c1 (stereo not given) | inconclusive: 3.66 µM [inhibitor, partial curve, poor fit] | 
Cc1ccc(C)c(N2CCN(C(=O)c3cc(S(=O)(=O)N4CCOCC4)ccc3F)CC2)c1 | inconclusive: 4.61 µM [inhibitor, partial curve, poor fit] | 
CC1CCCC(C)N1C(=O)c1cc(-c2cccs2)on1 (stereo not given) | inconclusive: 23.1 µM [activator, partial curve] | 
CC(=O)c1cccc(NC(=O)CCc2nnc3ccc(NCc4ccco4)nn23)c1 | inactive | 
O=C(Nc1cccc(Cl)c1)Nc1nnc(CC2=CCCCC2)s1 | inconclusive: 14.6 µM [activator, partial curve, poor fit] | 
Cc1cc2c3c([nH]c2cc1S(=O)(=O)NCc1ccc(CN2CCCCCC2)o1)CCCC3=O | inactive | 
Cc1ccc(-n2c(SCC(=O)N3c4ccccc4Sc4ccccc43)nnc2-c2ccncc2)cc1 | inconclusive: 18.4 µM [inhibitor, single point] | 
CCOc1ccc2nc(NC(=O)CSc3nnc(-c4ccncc4)n3CC3CCCO3)sc2c1 (stereo not given) | inconclusive: 10.3 µM [activator, partial curve] | 
CC(C)Cc1cc(C(=O)N2N=C(C(F)F)CC2(O)C(F)F)c2ccccc2n1 (stereo not given) | inconclusive: 29.1 µM [inhibitor, single point] | 
CCCn1c(=O)c2c(nc3n2CCCN3CCc2ccc(OC)c(OC)c2)n(C)c1=O | inconclusive: 23.1 µM [inhibitor, partial curve, poor fit] | 

Compound | Potency | activity change, negative = inhibition
N#CC1(NC(=O)COC(=O)c2cc([N+](=O)[O-])ccc2N2CCOCC2)CCCCC1 | inactive | 
O=C(COc1ccc(Br)cc1)Nc1ccncc1 | inactive | 
Cc1noc(C)c1CSc1nc2ccccc2nc1NS(=O)(=O)c1ccc(Cl)cc1 | active: 13 µM | 
CC(/C=N/NC(=O)c1nn(C)c(C)c1Br)=C\c1ccccc1 | inconclusive: 8.2 µM [activator, partial curve] | 
CN(C)S(=O)(=O)c1ccc(NC(=O)COC(=O)C2COc3ccccc3O2)cc1 (stereo not given) | inactive | 
Cc1ccoc1C(=O)Nc1cccc2ccccc12 | inconclusive: 18.3 µM [activator, partial curve] | 
Cc1ccc(C)c(NC(=O)CSc2nc3c(c(=O)n2C)SC(C)C3)c1 (stereo not given) | inconclusive: 29.1 µM [inhibitor, single point] | 
CCC(CC)N=C1NS(=O)(=O)c2cc([N+](=O)[O-])ccc21 | inactive | 
COCCNc1oc(/C=C/c2ccc(F)cc2)nc1S(=O)(=O)c1ccccc1 | inactive | 
C=CCn1c(SCC(=O)c2[nH]c(C)c(C(=O)OCC)c2C)nc2scc(-c3ccc(OC)cc3)c2c1=O | inconclusive: 6.51 µM [activator, partial curve, poor fit] | 
Cc1csc2ncc(C(=O)Nc3ccccc3F)c(=O)n12 | inconclusive: 20.6 µM [activator, partial curve] | 
O=C1NC2(CCCc3ccccc32)C(=O)N1Cc1nnc(-c2ccccc2Br)o1 (stereo not given) | inconclusive: 29.1 µM [inhibitor, single point] | 
COc1ccc(N2CCN(C(=O)CNC(=O)c3ccc(C(C)(C)C)cc3)CC2)cc1 | inconclusive: 23.1 µM [inhibitor, partial curve] | 
COc1ccc(C2C(=O)N(C3CCCCC3)CC(=O)N2C2CCCC2)cc1 (stereo not given) | inactive | 
COc1ccccc1NC1=C(NC(C)=O)C(=O)c2ccccc2C1=O | inactive | 
O=C(COC(=O)CCC(=O)c1cccs1)Nc1ccc(F)c(F)c1F | inactive | 
COc1ccc(-c2csc3nc(-c4cccnc4)nc(Cl)c23)cc1OC | inconclusive: 29.1 µM [inhibitor, single point] | 
CCOC(=O)N1CCN(C(=O)c2cccc(S(=O)(=O)Nc3ccccc3Cl)c2)CC1 | inactive | 
O=C(CCc1ccccc1)Nc1ccccc1C(=O)N1CCOCC1 | inconclusive: 4.61 µM [activator, full curve, poor fit] | 
Cc1ccc(C(=O)Nc2cc3c(cc2Cl)OCCCO3)cc1 | inconclusive: 9.2 µM [activator, partial curve] | 
O=C(Nc1ccccn1)C1COc2ccccc2O1 (stereo not given) | inconclusive: 16.4 µM [activator, partial curve] | 
Cc1cc(C)n(CCN(C)c2nc3nonc3nc2N2CCCCC2)n1 | inconclusive: 5.17 µM [activator, partial curve, poor fit] | 

Some of these compounds in order of SMILES length, low to high.
Compound | Potency | activity change, negative = inhibition
O=c1c2c(-c3ccccc3)csc2nc2n1CCC2 | inactive | 
O=C(CCl)N(c1ccccc1)C1CCS(=O)(=O)C1 (stereo not given) | inconclusive: 29.1 µM [inhibitor, single point] | 
O=C(COC(=O)CCC(=O)c1cccs1)Nc1ccc(F)c(F)c1F | inactive | 
Cc1ccc(C)c(NC(=O)CSc2nc3c(c(=O)n2C)SC(C)C3)c1 (stereo not given) | inconclusive: 29.1 µM [inhibitor, single point] | 
Cc1noc(C)c1CSc1nc2ccccc2nc1NS(=O)(=O)c1ccc(Cl)cc1 | active: 13 µM | 
